Results deposited as PubChem BioAssay AID1224830 (NIAID, 2016)
The whole screen tested about 18,000 reagents; this is a part drawn at random. About 2,900 of them (16%) were called active. 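Calls are made per well; low scores hint the gene aids the LPS response, high scores that it dampens it.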 Entries without a mark were called inactive. Repeated entries: four replicate wells of each siRNA pool. No sequences are given here.

Test: 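Regulators of TLR4 signalling towards TNF-alpha in macrophage-like cells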 (primary screen)
System: human THP-1 monocytic leukaemia cells, TNF dual-luciferase reporter clone, PMA-differentiated to macrophage-like cells
Reagents: siRNA pool against human genes, 50 nM
Duration: LPS for 4 h, given about 3 days after siRNA transfection
Conditions: bacterial LPS (TLR4 ligand), 10 ng/ml
Measurement: 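Ratio of firefly to renilla light, scaled to the plate median and expressed as a robust z-score per replicate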
Reading the numbers: TNF reporter robust z-score: higher = stronger TNF reporter response to LPS
Call rule: 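a well is active when its z-score exceeds 2.8 or falls below -1.5; control wells carry no call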

The opening 2 entries as a preview:
LINC03122
- TNF reporter robust z-score: -0.22

LINC03122
- TNF reporter robust z-score: -0.46

The list itself, repeating the preview:
LINC03122
- TNF reporter robust z-score: -0.22

LINC03122
- TNF reporter robust z-score: -0.46

LINC03122
- TNF reporter robust z-score: -0.17

LINC03122
- TNF reporter robust z-score: 0.44

SCUBE2
- TNF reporter robust z-score: -0.39

SCUBE2
- TNF reporter robust z-score: -1.23

SCUBE2
- TNF reporter robust z-score: -0.16

SCUBE2
- TNF reporter robust z-score: 0.23

HOXA3
- TNF reporter robust z-score: -0.19

HOXA3
- TNF reporter robust z-score: 1

HOXA3
- TNF reporter robust z-score: 0.58

HOXA3
- TNF reporter robust z-score: -0.15

PABIR3
- TNF reporter robust z-score: -0.12

PABIR3
- TNF reporter robust z-score: -0.47

PABIR3
- TNF reporter robust z-score: 0.32

PABIR3
- TNF reporter robust z-score: -0.27

ABR
- TNF reporter robust z-score: 0.17

ABR
- TNF reporter robust z-score: 1.26

ABR
- TNF reporter robust z-score: 0.06

ABR
- TNF reporter robust z-score: 3.77 (active)

TACR3
- TNF reporter robust z-score: -1.63 (active)

TACR3
- TNF reporter robust z-score: -1.08

TACR3
- TNF reporter robust z-score: -0.39

TACR3
- TNF reporter robust z-score: -0.19

LTN1
- TNF reporter robust z-score: 0.25

LTN1
- TNF reporter robust z-score: -0.12

LTN1
- TNF reporter robust z-score: 1.54

LTN1
- TNF reporter robust z-score: 1.37

PRAC1
- TNF reporter robust z-score: 0

PRAC1
- TNF reporter robust z-score: 0.39

PRAC1
- TNF reporter robust z-score: -1.48

PRAC1
- TNF reporter robust z-score: -1.13
